Results: patent US20180230236A1
These are yes or no findings as the source states them, for the method shown. Some entries that bind do so weakly or less than the wild type.

Biological target: T1, IgE epsilon chain peptide … (shared sequence of two adjacent SPOTS 13mer peptides) (canine)
T1 sequence (peptide, synthesised on a cellulose membrane): QKATNIFPYTAPG
Assay: SPOTS ELISA on cellulose membrane peptide array

B1: monoclonal antibody (mAb) 5.91 (antibody, V domains shown)
VH: EVQLQQSGPELVKPGASMKISCKASGYSITGYTIHWVKQSHGKNLEWIGLINPYTGGITYNQNFKGKATLTVDKSSSTAYMELLSLTSEDSAVYYCSRGPYGNFYAMDYWGQGTSVTVSS
VL: DIQMTQSPASLSASVGETVTITCRASGNIHNYLAWYQQKQGKSPQLLVYNAKTLADSVPSRFSGSGSGTQFSLKINSLQPEDFGSYYCQHFWSTPYTFGGGTKLEIKR
modifications: antibody biotinylated in ELISA and SPOTS ELISA; sites not stated
For B1, which binding is on record?
The binding was “binds”.
